Values of other authors as cited in patent US20060057109A1 (priority 2002, published 2006).
At least one compound was matched to its structure with a doubt left.

Tested on: Tet-off transgene expression
Conditions: Tet-off adenovirus, very low tetracycline doses; cited from earlier work

## CN(C)[C@@H]1C(O)=C(C(N)=O)C(=O)[C@@]2(O)C(O)=C3C(=O)c4c(O)cccc4[C@@](C)(O)[C@H]3C[C@@H]12 [tetracycline]
  suppression of transgene expression: 20- to 500 fold
